Laboratory results published in US11339372B2, “Serum-free medium inducing differentiation of umbilical cord mesenchymal stem cell into insulin-secretion-like cell and preparation method and use thereof” (SCLNOW BIOTECHNOLOGY CO., LTD, priority 2016, dated 2022).
For at least one compound, name, drawing or mass did not settle the structure.

System: Human umbilical cord mesenchymal stem cells
Assay: Screening for the content of pentagastrin in the medium: glucose stimulation experiment, insulin ELISA
Type: cell-based
Conditions: 6 days culture, 25 mM/L glucose stimulation 2 hours, 1×10^4 cells

CSCC[C@H](NC(=O)[C@H](Cc1c[nH]c2ccccc12)NC(=O)CCNC(=O)OC(C)(C)C)C(=O)N[C@@H](CC(=O)O)C(=O)N[C@@H](Cc1ccccc1)C(N)=O [pentagastrin]
amount of insulin released per cell (medium with 5 ng/ml pentagastrin): higher amounts of insulin released per cell | amount of insulin released per cell (medium with 10 ng/ml pentagastrin): higher amounts of insulin released per cell | amount of insulin released per cell (medium with 20 ng/ml pentagastrin): higher amounts of insulin released per cell
